# Measurements reported in PubChem BioAssay AID504467 (National Center for Advancing Translational Sciences (NCATS), 2011).
# Screen size: about 330,000 compounds; about 7,700 (2.3%) were called active. The shares of active, inactive and inconclusive entries below differ from those in the screen. The call rests on the fitted dose curve; in most records, active means well fitted inhibition curve with a large enough effect; inconclusive means small, poorly fitted or top-dose-only effect, or effect the other way; inactive means flat fitted curve, though single readings scatter. Potencies of inconclusive entries are doubtful fits and often do not repeat.
# Assay: qHTS screen for small molecules that inhibit ELG1-dependent DNA repair in human embryonic kidney (HEK293T) cells expressing luciferase-tagged ELG1; further: nearly all actives have a fitted effect of over 55% in size
# Settings: HEK293T ELG1-luciferase reporter, luminescence, 16 h, DNA damage induced by 5-fluorouridine; series mostly up to 46.1 µM
# Outline: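 Reporter activity after DNA damage by 5-fluorouridine is monitored. Compound-treated cells incubate 16 hr at 37 °C, then ONE-Glo is added for 30 min before luminescence reading.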
# Potency means the concentration at half of the fitted maximal effect.
row,Structure (SMILES),Potency
1,O=C(CCCN1C(=O)CSc2ncccc21)N1CCN(c2cccc(C(F)(F)F)c2)CC1,"inconclusive: 25.9 µM [inhibitor, single point]"
2,COc1ccccc1OCCSc1nc(N)cc(N)n1,"inconclusive: 14.6 µM [activator, partial curve]"
3,Clc1ccc(-c2csc(N/N=C/c3ccco3)n2)cc1,"inconclusive: 23.1 µM [activator, partial curve]"
4,O=C(CSc1ccc(-c2ccccc2)nn1)c1cccs1,"inconclusive: 16.4 µM [activator, partial curve, poor fit]"
5,COc1ccc(Nc2nc(N)nc(CSc3nncn3C)n2)cc1,"inconclusive: 20.6 µM [activator, partial curve]"
6,CSc1cccc(NC(=S)N2CCC(N(C)C3CCCCC3C)CC2)c1 (stereo not drawn),inactive
7,Cc1cccc(-c2nc(CSCC(=O)N3CCN(Cc4ccc5c(c4)OCO5)CC3)c(C)o2)c1,"inconclusive: 11.6 µM [inhibitor, partial curve]"
8,COC(=O)CCn1nnc(-c2ccc(C)cc2)n1,"inconclusive: 18.4 µM [activator, single point]"
9,COC(=O)CNc1nc(C2CC2)nc2c1nnn2Cc1ccccc1Cl,inactive
10,COc1ccc2c(c1)Cc1sc(NC(=O)c3cccs3)nc1-2,"inconclusive: 2.31 µM [activator, partial curve, poor fit]"
11,Cc1cccc(-n2c(-c3ccncc3)n[nH]c2=S)c1,inactive
12,Cc1ccccc1NCC(=O)N=Nc1c(O)[nH]c2ccc([N+](=O)[O-])cc12,inactive
13,Cc1cc(Br)cc(C)c1NC(=S)NC(=O)CC(C)C,inactive
14,COc1ccc(NS(=O)(=O)c2cccc(C(=O)N3CCCC(C)C3)c2)cc1 (stereo not drawn),inactive
15,O=C1N[C@@H](Cc2ccccc2)C(=O)N2[C@H]1C[C@]1([C@]34C[C@H]5C(=O)N[C@@H](Cc6ccccc6)C(=O)N5[C@H]3N(S(=O)(=O)c3ccccc3)c3ccccc34)c3ccccc3N(S(=O)(=O)c3ccccc3)[C@H]21,"inconclusive: 25.1 µM [activator, single point]"
16,O=C(NNC(=O)c1cccc2ccccc12)c1ccc(-c2ccccc2)cc1,inactive
17,O=c1[nH]ncc(N/N=C\c2ccc(O)cc2O)c1Cl,"inconclusive: 29.1 µM [activator, single point]"
18,C=CCc1cccc(/C=N/NC(=O)C[n+]2ccccc2)c1O,"inconclusive: 20.6 µM [inhibitor, single point]"
19,COc1ccc(-c2ccc(=O)n(CC(=O)Nc3ccc(C(=O)NC4CC4)cc3)n2)cc1OC,"inconclusive: 25.9 µM [inhibitor, single point]"
20,Cc1ccc(OCc2ccc(C(=O)Nc3cc(C)on3)o2)c([N+](=O)[O-])c1,inactive
21,CCN(CCn1cccn1)C(=O)c1cc(COc2ccc(F)c(F)c2)on1,"inconclusive: 20.6 µM [activator, single point]"
22,Cc1ccc2cc(CCNC(=O)C(C)C)c(=O)[nH]c2c1C,"inconclusive: 13 µM [activator, partial curve]"
23,CC1CCN(C(=S)c2ccc(-c3ccc(Cl)cc3Cl)o2)CC1,"inconclusive: 23.1 µM [activator, partial curve]"

row,Structure (SMILES),Potency
1,Cc1ccc2cc(NC(=O)c3ccc(C(C)(C)C)cc3)ccc2n1,"inconclusive: 29.1 µM [inhibitor, single point]"
2,O=c1cnnc(N/N=C/c2ccccn2)[nH]1,"inconclusive: 0.58 µM [inhibitor, full curve]"
3,Cc1cccc(NC(=O)CCS(=O)(=O)c2ccccc2)n1,"inconclusive: 29.1 µM [activator, single point]"
4,CCOc1ccc(C2C(C(=O)c3cccs3)=C(O)C(=O)N2CCN2CCOCC2)cc1 (stereo not drawn),"inconclusive: 29.1 µM [activator, single point]"
5,COC(=O)c1cc2sc(Cl)cc2n1CC(=O)Nc1ccc(OC)c(OC)c1OC,"inconclusive: 18.4 µM [inhibitor, partial curve, poor fit]"
6,O=C(NCCC1=CCCCC1)c1cc(S(=O)(=O)N2CCCCC2)ccc1Cl,inactive
7,FC(F)(F)c1cccc(N/N=C/c2ccccc2)c1,"inconclusive: 16.4 µM [activator, partial curve]"
8,Cc1cccc(CCNc2nc3ccc(C)cc3n3cnnc23)c1,"inconclusive: 20.6 µM [activator, partial curve]"
9,O=C(Nc1cc2ccccc2oc1=O)c1ccccc1,"inconclusive: 0.326 µM [activator, full curve]"
10,C/C(=N\NC(=O)c1ccc(CN2CCOCC2)cc1)c1cccc([N+](=O)[O-])c1,"inconclusive: 18.4 µM [inhibitor, partial curve]"
11,CCOC(=O)N1CCN(c2c(N3CCN(c4ccccc4OC)CC3)c(=O)c2=O)CC1,"inconclusive: 6.51 µM [inhibitor, single point]"
12,COc1ccc(OCc2cc(=O)c3ccc4c(c3o2)C=CC(C)(C)O4)cc1OC,"inconclusive: 18.3 µM [inhibitor, single point]"
13,COCCCNC(=O)CN1C(=O)/C(=C/c2ccccc2C)Sc2ccccc21,inactive
14,CC(=O)Nc1ccc(NC(=O)c2ccc(COc3ccccc3)cc2)cc1,inactive
15,O=C(Nc1ccc(Oc2ncccn2)cc1)c1ccco1,"inconclusive: 14.6 µM [activator, single point]"
16,CCOC(=O)CSC1=C(C#N)C(c2ccc(C)o2)CC(=O)N1 (stereo not drawn),inactive
17,c1ccc(CNc2ncnc3c2oc2ccccc23)nc1,"inconclusive: 11.6 µM [activator, partial curve]"
18,CCOc1ccc2nc(SCC(=O)c3ccc(C)s3)sc2c1,"inconclusive: 20.6 µM [activator, single point]"
19,CCN(CC(O)Cn1c2ccccc2c2ccccc21)S(=O)(=O)c1ccc(F)cc1 (stereo not drawn),"inconclusive: 25.9 µM [inhibitor, partial curve]"
20,O=C(CN1C(=O)NC2(CCCC2)C1=O)OCc1c(F)cccc1Cl,"inconclusive: 29.1 µM [activator, single point]"
21,CCCCCCn1c2c(c(=N)c3c1CCC3)CCC2,"inconclusive: 0.82 µM [inhibitor, full curve, poor fit]"
22,CN(CC(=O)Nc1ccc(N2CCOCC2)cc1)C(=O)c1ccc(CS(C)(=O)=O)cc1,inactive
23,COc1ccc(/C(C)=N/NC(=O)c2nnn(-c3nonc3N)c2-c2cccs2)cc1,"inconclusive: 29.1 µM [activator, single point]"

row,Structure (SMILES),Potency
1,O=c1cccccc1NN=C1CCCCC1,"inconclusive: 9.2 µM [activator, partial curve, poor fit]"
2,Cc1ccc(S(=O)(=O)NCC(=O)N(CC(=O)NC(C)(C)C)Cc2cccs2)cc1,"inconclusive: 29.1 µM [activator, partial curve, poor fit]"
3,COc1ccc(/C=C/C(=O)O)cc1S(=O)(=O)Nc1ccc2c(c1)OCO2,"inconclusive: 29.1 µM [activator, single point]"
4,CC(C(=O)Nc1ccc(Cl)cc1)c1ncc(C(F)(F)F)cc1Cl (stereo not drawn),"inconclusive: 5.17 µM [inhibitor, partial curve]"
5,COc1cc(NC(=O)CN2CCCCC2)c(C)cc1[N+](=O)[O-],"inconclusive: 18.4 µM [activator, partial curve]"
6,CC(=O)N1CCN(S(=O)(=O)c2cccc(C(=O)Nc3ccc(OC(F)F)cc3)c2)CC1,"inconclusive: 29.1 µM [inhibitor, single point]"
7,CN(Cc1ccccc1)C(=S)NC(=O)c1ccccc1,inactive
8,Cc1nnc(SCC(=O)Nc2ncc(Cl)cc2Cl)n1Cc1ccccc1,inactive
9,Cc1ccccc1CSc1nnc(-c2cccnc2)n1N,"inconclusive: 29.1 µM [activator, single point]"
10,CCOC(=O)c1csc(COc2ccccc2Cl)n1,"inconclusive: 18.3 µM [activator, single point]"
11,NCc1ccc(-c2nc3ccccc3o2)cc1,"inconclusive: 8.2 µM [activator, partial curve]"
12,CCN1CCN(c2ccc(S(=O)(=O)N3CCCCC3)cc2NC(=O)Cc2c(Cl)cccc2Cl)CC1,"inconclusive: 23.1 µM [activator, single point]"
13,Cc1cc(OCCOCCNC(C)C)cc(C)c1Cl,inactive
14,CN(C)S(=O)(=O)Oc1cccc(C(=O)Nc2ccc(Cl)c(Cl)c2)c1,"inconclusive: 2.91 µM [activator, full curve]"
15,Cc1ccc(CNC(=O)CCc2c(C)nc3c(c(C)nn3-c3ccc(C)cc3)c2C)cc1,inactive
16,O=C(c1cnn2c1NC(c1ccco1)CC2C(F)(F)F)N1CCN(c2cccc(Cl)c2)CC1 (stereo not drawn),active: 10.3 µM
17,O=C1C(=Cc2cccs2)C(=O)c2ccccc21,inactive
18,O=C(c1cc2cc(Cl)ccc2o1)N1CCCCCC1,"inconclusive: 20.6 µM [activator, partial curve]"
19,Cc1ccc(-c2csc(NC(=O)Cn3cnc4c3c(=O)n(C)c(=O)n4C)n2)cc1C,"inconclusive: 14.6 µM [activator, partial curve]"
20,CCOC(=O)c1ccc(NC(=O)c2cc3c(C)nn(-c4ccccc4Cl)c3s2)s1,"inconclusive: 29.1 µM [inhibitor, single point]"
21,CC(C)NC(=O)CCNC(=O)c1ccc(F)cc1,"inconclusive: 32.6 µM [inhibitor, single point]"
22,O=C(Nc1cccc(Cn2cccn2)c1)c1cc2c(s1)CCCC2,"inconclusive: 0.731 µM [activator, partial curve, poor fit]"

# Reprinted at random: 2 records from the list, in no set order.
row,Structure (SMILES),Potency
1,O=c1cccccc1NN=C1CCCCC1,"inconclusive: 9.2 µM [activator, partial curve, poor fit]"
9,Cc1ccccc1CSc1nnc(-c2cccnc2)n1N,"inconclusive: 29.1 µM [activator, single point]"

# Reformatted with tabs: entries from further up
row	Structure (SMILES)	Potency
21	CC(C)NC(=O)CCNC(=O)c1ccc(F)cc1	inconclusive: 32.6 µM [inhibitor, single point]
22	O=C(Nc1cccc(Cn2cccn2)c1)c1cc2c(s1)CCCC2	inconclusive: 0.731 µM [activator, partial curve, poor fit]
